Measurements reported in paper PMC7534336, “New classes of potent heparanase inhibitors from ligand-based virtual screening” (Journal of Enzyme Inhibition and Medicinal Chemistry, 2020).

Amino acid sequences for entries named in this document (tags omitted). Chains listed by the source or under a name are the forms on record and can include a tag or linker.
UniProt Q9Y251, with tags, fused parts or gaps limits assumed: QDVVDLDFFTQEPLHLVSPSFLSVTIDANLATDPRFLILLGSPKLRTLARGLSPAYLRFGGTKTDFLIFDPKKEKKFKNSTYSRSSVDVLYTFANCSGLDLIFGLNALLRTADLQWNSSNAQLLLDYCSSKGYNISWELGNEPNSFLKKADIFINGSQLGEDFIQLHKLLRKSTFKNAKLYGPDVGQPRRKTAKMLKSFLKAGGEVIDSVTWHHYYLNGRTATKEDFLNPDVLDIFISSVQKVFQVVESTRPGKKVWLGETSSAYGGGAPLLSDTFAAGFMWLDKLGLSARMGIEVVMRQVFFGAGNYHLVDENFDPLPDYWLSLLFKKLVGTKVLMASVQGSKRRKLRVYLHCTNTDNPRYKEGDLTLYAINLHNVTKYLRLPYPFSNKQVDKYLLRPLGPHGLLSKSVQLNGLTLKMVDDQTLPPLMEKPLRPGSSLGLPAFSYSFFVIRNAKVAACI

Target: human GS3 heparanase (Homo sapiens, UniProt Q9Y251)
Experiment: fondaparinux assay of heparanase enzymatic activity (WST-1 colorimetric)
Type: biochemical
Conditions: read-out: IC50 (µM) ± SD, heparanase inhibitory activity; fondaparinux assay on human GS3 heparanase; mean of triplicates

- IC50: < 5 µM and 2.17 µM
SMILES: O=C(O)c1ccc2c(c1)C(=O)N(c1ccc(Oc3ccc(Oc4ccc(N5C(=O)c6ccc(C(=O)O)cc6C5=O)cc4)cc3)cc1)C2=O

Certain results were filed several times, with different values. Only these are listed. There may be further records. Results that share an entry do not match, cause unknown; some may be repeats, others may stem from another dose, organism or construct than stated.
